Results from publication doi:10.1101/859587.
Results are given in words; binding and its absence hold for the method and conditions named. Binding seen in cells or lysates may run through a third protein. These calls come from enrichment with a bait or labelling near it, and not all partners need be listed. Tags and fused reporters may be left off the sequences shown.

The chains behind the UniProt entries cited, without tags or fusion partners.
UniProt Q8CFI0: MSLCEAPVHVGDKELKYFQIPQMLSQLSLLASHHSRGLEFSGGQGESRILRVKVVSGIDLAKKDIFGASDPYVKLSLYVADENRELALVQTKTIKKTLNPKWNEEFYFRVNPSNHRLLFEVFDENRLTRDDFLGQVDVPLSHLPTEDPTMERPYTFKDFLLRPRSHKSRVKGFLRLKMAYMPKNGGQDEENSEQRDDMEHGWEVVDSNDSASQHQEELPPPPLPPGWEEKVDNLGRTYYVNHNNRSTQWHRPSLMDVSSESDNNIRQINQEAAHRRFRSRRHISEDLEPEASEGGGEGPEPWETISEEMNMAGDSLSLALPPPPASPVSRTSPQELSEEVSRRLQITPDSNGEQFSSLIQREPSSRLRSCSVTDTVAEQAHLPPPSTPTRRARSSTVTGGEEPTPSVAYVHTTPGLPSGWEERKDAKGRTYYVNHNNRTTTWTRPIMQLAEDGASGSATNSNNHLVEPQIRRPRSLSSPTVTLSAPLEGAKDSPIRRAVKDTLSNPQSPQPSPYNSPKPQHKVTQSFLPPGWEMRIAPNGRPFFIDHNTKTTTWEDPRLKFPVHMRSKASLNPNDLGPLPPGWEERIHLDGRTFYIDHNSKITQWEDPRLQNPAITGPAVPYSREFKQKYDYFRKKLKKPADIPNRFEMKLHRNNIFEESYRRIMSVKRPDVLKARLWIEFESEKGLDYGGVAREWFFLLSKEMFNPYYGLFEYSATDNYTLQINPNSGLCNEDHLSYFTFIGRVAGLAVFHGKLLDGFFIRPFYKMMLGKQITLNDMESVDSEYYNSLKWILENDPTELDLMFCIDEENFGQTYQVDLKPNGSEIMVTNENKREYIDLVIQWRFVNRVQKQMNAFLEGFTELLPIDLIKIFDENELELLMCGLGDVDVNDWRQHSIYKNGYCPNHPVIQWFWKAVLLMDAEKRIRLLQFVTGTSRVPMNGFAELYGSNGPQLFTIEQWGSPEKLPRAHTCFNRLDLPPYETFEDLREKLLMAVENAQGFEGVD
UniProt Q8C863: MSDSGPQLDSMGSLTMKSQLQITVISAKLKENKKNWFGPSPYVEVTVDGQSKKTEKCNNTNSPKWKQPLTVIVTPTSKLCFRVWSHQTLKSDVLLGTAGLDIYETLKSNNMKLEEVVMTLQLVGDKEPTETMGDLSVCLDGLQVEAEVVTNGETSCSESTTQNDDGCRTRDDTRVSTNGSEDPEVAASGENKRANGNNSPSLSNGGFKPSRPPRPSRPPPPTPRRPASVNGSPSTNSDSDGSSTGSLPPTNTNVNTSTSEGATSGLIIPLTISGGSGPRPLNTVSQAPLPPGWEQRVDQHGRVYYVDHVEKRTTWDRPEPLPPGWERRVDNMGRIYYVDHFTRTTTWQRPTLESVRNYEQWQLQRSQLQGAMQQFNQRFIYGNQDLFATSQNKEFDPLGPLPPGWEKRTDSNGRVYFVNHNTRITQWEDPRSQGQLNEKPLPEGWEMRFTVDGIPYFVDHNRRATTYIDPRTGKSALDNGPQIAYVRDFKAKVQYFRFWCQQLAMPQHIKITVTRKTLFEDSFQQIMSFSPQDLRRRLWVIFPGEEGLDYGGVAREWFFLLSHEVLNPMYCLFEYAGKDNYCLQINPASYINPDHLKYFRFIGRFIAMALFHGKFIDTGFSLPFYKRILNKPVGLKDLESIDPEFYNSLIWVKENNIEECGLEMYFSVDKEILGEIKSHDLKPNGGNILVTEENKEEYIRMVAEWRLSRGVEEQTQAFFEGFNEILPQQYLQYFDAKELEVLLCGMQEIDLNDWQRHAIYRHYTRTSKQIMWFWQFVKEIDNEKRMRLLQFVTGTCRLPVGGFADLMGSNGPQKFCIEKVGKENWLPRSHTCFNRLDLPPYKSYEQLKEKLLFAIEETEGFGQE

The substances below were run against T1, GFP-tagged SUSD4 (mouse) (UniProt Q8BH32) (assay: affinity purification with mass spectrometry).
T1 sequence: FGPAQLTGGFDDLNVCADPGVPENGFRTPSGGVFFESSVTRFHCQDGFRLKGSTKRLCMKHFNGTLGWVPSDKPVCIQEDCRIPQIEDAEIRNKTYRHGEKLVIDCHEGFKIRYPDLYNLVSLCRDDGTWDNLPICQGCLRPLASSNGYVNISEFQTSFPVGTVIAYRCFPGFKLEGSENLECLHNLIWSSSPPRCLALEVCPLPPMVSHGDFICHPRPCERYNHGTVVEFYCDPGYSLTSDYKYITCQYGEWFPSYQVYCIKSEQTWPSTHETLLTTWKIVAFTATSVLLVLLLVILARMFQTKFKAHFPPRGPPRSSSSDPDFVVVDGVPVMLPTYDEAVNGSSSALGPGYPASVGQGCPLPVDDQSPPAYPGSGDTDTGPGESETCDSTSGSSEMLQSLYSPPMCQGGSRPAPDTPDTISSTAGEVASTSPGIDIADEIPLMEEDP

binding | Substance
binds | WWP1 (from UniProt Q8BZZ3 1-918) (enzyme)
binds | NEDD4L (from UniProt Q8CFI0 1-1004) (enzyme)
binds | ITCH (from UniProt Q8C863 1-864) (enzyme)
